# Part of at least one peptide drawing is inferred or uncertain, most often the ends.
# Experiment: Solubility of peptides at pH 7.4 and 6.5 (Example 13)
# Format: physicochemical
# Text: Five pH sensitive peptides of the following sequences, […] (SEQ ID NO: 17), […] (SEQ ID NO: 18), […] (SEQ ID NO: 19), […] (SEQ ID NO: 20) and […] (SEQ ID NO: 8) were similarly synthesized by the method described in Example (1). Peptides […] (SEQ ID NO: 17) and […] (SEQ ID NO: 18) were soluble at both pH 7.4 and 6.5. Peptides […] (SEQ ID NO: 19) and […] (SEQ ID NO: 20) were insoluble at both pH 7.4 and 6.5, with […] (SEQ ID NO: 20) forming nanoparticles of about 80 nm. Peptide […] (SEQ ID NO: 8) was insoluble above about pH 6.7 forming nanoparticles of about 50 nm and soluble below about pH6.7; i.e., it undergoes a pH-induced transition at about pH6.7. Therefore, the pH ranges of the hydrophobic/hydrophilic transition and the corresponding soluble/insoluble transition of peptides and their nanoparticles may be adjusted by changing one or more features of the peptide, e.g., sequence and length, and the hydrophobic block and the functional block to which the peptide is conjugated.
substance,measurement,value
Ac-KGHFFHGHFFHGHFFH-NH2,"pH of pH-induced transition (insoluble above, soluble below)",~6.7
